No constants are given. Whether binding was seen depends on the method and setting.

For this assay, the target named is T1, EH domain of human γ-synergin, longest construct (residues 279–388) (human) (UniProt Q9UMZ2).
T1 sequence: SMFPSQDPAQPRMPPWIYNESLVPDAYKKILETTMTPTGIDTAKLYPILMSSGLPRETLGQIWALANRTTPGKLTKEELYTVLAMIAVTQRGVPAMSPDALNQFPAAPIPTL
Briefly: ITC; EHγ 50–200 μM in the cell, SCAMP1 fragments and peptides A, B, C at 700–2000 μM titrated in; 20 mM Tris, 100 mM NaCl, 2 mM CaCl2 pH 7.5, 20°C; one site binding model; both purified. (In general: In ITC the heat of successive injections is recorded.)

B1: SCAMP1′, coiled coil fragment of SCAMP1 devoid of NPF-repeats (residues 65–130) (domain or fragment, UniProt O15126 65-130)
chain: SMKPTEEHPAYTQIAKEHALAQAELLKRQEELERKAAELDRREREMQNLSQHGRKNNWPPLPSNFPVG
For the molecule B1, the binding entry is reported as “no binding (tested: 700–2000 μM titrated into 50–200 μM EHγ)”.

Values taken from PMC8927860, “Completing the family of human Eps15 homology domains: Solution structure of the internal Eps15 homology domain of γ‐synergin” (Protein Science : A Publication of the Protein Society, 2022).
